{"source": "the supplement of paper PMC8728848", "binders": {"B1": {"name": "Aap lectin (Staphylococcus epidermidis) (protein)", "chain": "VNLNYSSPFMSLLSMPADSSSNNTKNTIDIPPTTVKGRDNYDFYGRVDIESNPTDLNATNLTRYNYGQPPGTTTAGAVQFKNQVSFDKDFDFNIRVANNRQSNTTGADGWGFMFSKKDGDDFLKNGGILREKGTPSAAGFRIDTGYYNNDPLDKIQKQAGQGYRGYGTFVKNDSQGNTSKVGSGTPSTDFLNYADNTTNDLDGKFHGQKLNNVNLKYNASNQTFTATYAGKTWTATLSELGLSPTDSYNFLVTSS"}}, "assay_in_all_cases": "glycan array binding signal (z-score within array); higher = stronger binding", "details_in_all_cases": "glycan notation: IUPAC condensed, linker removed", "key": {"[1]": {"target": "Gal(b1-4)GlcNAc(b1-3)Gal(b1-4)Glc", "method_in_brief": "(§1)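 The binding signal is a Z-score computed within each array and averaged over linkers. Arrays of the same protein sequence at different concentrations or buffers were also averaged together. Data originate from 3228 arrays in the Consortium for Functional Glycomics database, kept only where the protein sequence was available.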"}, "[2]": {"target": "Gal(b1-4)GlcNAc(b1-3)Gal(b1-4)GlcNAc", "method_in_brief": "as §1"}, "[3]": {"target": "Gal(b1-4)GlcNAc(b1-3)Gal(b1-4)GlcNAc(b1-2)Man(a1-3)[Gal(b1-4)GlcNAc(b1-3)Gal(b1-4)GlcNAc(b1-2)Man(a1-6)]Man(b1-4)GlcNAc(b1-4)GlcNAc", "method_in_brief": "as §1"}, "[4]": {"target": "Gal(b1-4)GlcNAc(b1-3)Gal(b1-4)GlcNAc(b1-2)Man(a1-3)[Gal(b1-4)GlcNAc(b1-3)Gal(b1-4)GlcNAc(b1-2)Man(a1-6)]Man(b1-4)GlcNAc(b1-4)[Fuc(a1-6)]GlcNAc", "method_in_brief": "as §1"}, "[5]": {"target": "Gal(b1-4)GlcNAc(b1-3)Gal(b1-4)GlcNAc(b1-2)[Gal(b1-4)GlcNAc(b1-3)Gal(b1-4)GlcNAc(b1-6)]Man(a1-6)[Gal(b1-4)GlcNAc(b1-3)Gal(b1-4)GlcNAc(b1-2)Man(a1-3)]Man(b1-4)GlcNAc(b1-4)GlcNAc", "method_in_brief": "as §1"}, "[6]": {"target": "Gal(b1-4)GlcNAc(b1-3)Gal(b1-4)GlcNAc(b1-2)[Gal(b1-4)GlcNAc(b1-3)Gal(b1-4)GlcNAc(b1-6)]Man(a1-6)[Gal(b1-4)GlcNAc(b1-3)Gal(b1-4)GlcNAc(b1-2)Man(a1-3)]Man(b1-4)GlcNAc(b1-4)[Fuc(a1-6)]GlcNAc", "method_in_brief": "as §1"}, "[7]": {"target": "Gal(b1-4)GlcNAc(b1-3)Gal(b1-4)GlcNAc(b1-3)Gal(b1-4)GlcNAc", "method_in_brief": "as §1"}, "[8]": {"target": "Gal(b1-4)GlcNAc(b1-3)Gal(b1-4)GlcNAc(b1-3)Gal(b1-4)GlcNAc(b1-2)Man(a1-3)[Gal(b1-4)GlcNAc(b1-3)Gal(b1-4)GlcNAc(b1-3)Gal(b1-4)GlcNAc(b1-2)Man(a1-6)]Man(b1-4)GlcNAc(b1-4)GlcNAc", "method_in_brief": "as §1"}, "[9]": {"target": "Gal(b1-4)GlcNAc(b1-3)Gal(b1-4)GlcNAc(b1-3)Gal(b1-4)GlcNAc(b1-2)Man(a1-3)[Gal(b1-4)GlcNAc(b1-3)Gal(b1-4)GlcNAc(b1-3)Gal(b1-4)GlcNAc(b1-2)Man(a1-6)]Man(b1-4)GlcNAc(b1-4)[Fuc(a1-6)]GlcNAc", "method_in_brief": "as §1"}, "[10]": {"target": "Gal(b1-4)GlcNAc(b1-3)Gal(b1-4)GlcNAc(b1-3)Gal(b1-4)GlcNAc(b1-2)[Gal(b1-4)GlcNAc(b1-3)Gal(b1-4)GlcNAc(b1-3)Gal(b1-4)GlcNAc(b1-6)]Man(a1-6)[Gal(b1-4)GlcNAc(b1-3)Gal(b1-4)GlcNAc(b1-3)Gal(b1-4)GlcNAc(b1-2)Man(a1-3)]Man(b1-4)GlcNAc(b1-4)[Fuc(a1-6)]GlcNAc", "method_in_brief": "as §1"}, "[11]": {"target": "Gal(b1-4)GlcNAc(b1-3)Gal(b1-4)GlcNAc(b1-3)Gal(b1-4)GlcNAc(b1-3)Gal(b1-4)GlcNAc(b1-2)Man(a1-3)[Gal(b1-4)GlcNAc(b1-3)Gal(b1-4)GlcNAc(b1-3)Gal(b1-4)GlcNAc(b1-3)Gal(b1-4)GlcNAc(b1-2)Man(a1-6)]Man(b1-4)GlcNAc(b1-4)GlcNAc", "method_in_brief": "as §1"}, "[12]": {"target": "Gal(b1-4)GlcNAc(b1-3)Gal(b1-4)GlcNAc(b1-3)Gal(b1-4)GlcNAc(b1-3)Gal(b1-4)GlcNAc(b1-2)Man(a1-3)[Gal(b1-4)GlcNAc(b1-3)Gal(b1-4)GlcNAc(b1-3)Gal(b1-4)GlcNAc(b1-3)Gal(b1-4)GlcNAc(b1-2)Man(a1-6)]Man(b1-4)GlcNAc(b1-4)[Fuc(a1-6)]GlcNAc", "method_in_brief": "as §1"}, "[13]": {"target": "Gal(b1-4)GlcNAc(b1-3)Gal(b1-4)GlcNAc(b1-3)Gal(b1-4)GlcNAc(b1-3)Gal(b1-4)GlcNAc(b1-2)[Gal(b1-4)GlcNAc(b1-3)Gal(b1-4)GlcNAc(b1-3)Gal(b1-4)GlcNAc(b1-3)Gal(b1-4)GlcNAc(b1-6)]Man(a1-6)[Gal(b1-4)GlcNAc(b1-3)Gal(b1-4)GlcNAc(b1-3)Gal(b1-4)GlcNAc(b1-3)Gal(b1-4)GlcNAc(b1-2)Man(a1-3)]Man(b1-4)GlcNAc(b1-4)[Fuc(a1-6)]GlcNAc", "method_in_brief": "as §1"}, "[14]": {"target": "Gal(b1-4)GlcNAc(b1-3)Gal(b1-4)GlcNAc(b1-3)Gal(b1-4)GlcNAc(b1-3)Gal(b1-4)GlcNAc(b1-3)Gal(b1-4)GlcNAc(b1-2)Man(a1-3)[Gal(b1-4)GlcNAc(b1-3)Gal(b1-4)GlcNAc(b1-3)Gal(b1-4)GlcNAc(b1-3)Gal(b1-4)GlcNAc(b1-3)Gal(b1-4)GlcNAc(b1-2)Man(a1-6)]Man(b1-4)GlcNAc(b1-4)GlcNAc", "method_in_brief": "as §1"}, "[15]": {"target": "Gal(b1-4)GlcNAc(b1-3)Gal(b1-4)GlcNAc(b1-3)Gal(b1-4)GlcNAc(b1-3)Gal(b1-4)GlcNAc(b1-3)Gal(b1-4)GlcNAc(b1-2)Man(a1-3)[Gal(b1-4)GlcNAc(b1-3)Gal(b1-4)GlcNAc(b1-3)Gal(b1-4)GlcNAc(b1-3)Gal(b1-4)GlcNAc(b1-3)Gal(b1-4)GlcNAc(b1-2)Man(a1-6)]Man(b1-4)GlcNAc(b1-4)[Fuc(a1-6)]GlcNAc", "method_in_brief": "as §1"}, "[16]": {"target": "Gal(b1-4)GlcNAc(b1-3)Gal(b1-4)GlcNAc(b1-3)Gal(b1-4)GlcNAc(b1-3)Gal(b1-4)GlcNAc(b1-3)Gal(b1-4)GlcNAc(b1-2)[Gal(b1-4)GlcNAc(b1-3)Gal(b1-4)GlcNAc(b1-3)Gal(b1-4)GlcNAc(b1-3)Gal(b1-4)GlcNAc(b1-3)Gal(b1-4)GlcNAc(b1-6)]Man(a1-6)[Gal(b1-4)GlcNAc(b1-3)Gal(b1-4)GlcNAc(b1-3)Gal(b1-4)GlcNAc(b1-3)Gal(b1-4)GlcNAc(b1-3)Gal(b1-4)GlcNAc(b1-2)Man(a1-3)]Man(b1-4)GlcNAc(b1-4)[Fuc(a1-6)]GlcNAc", "method_in_brief": "as §1"}, "[17]": {"target": "Gal(b1-4)GlcNAc(b1-3)Gal(b1-4)GlcNAc(b1-3)Gal(b1-4)GlcNAc(b1-3)Gal(b1-4)GlcNAc(b1-3)Gal(b1-4)GlcNAc(b1-3)Gal(b1-4)GlcNAc(b1-2)Man(a1-3)[Gal(b1-4)GlcNAc(b1-3)Gal(b1-4)GlcNAc(b1-3)Gal(b1-4)GlcNAc(b1-3)Gal(b1-4)GlcNAc(b1-3)Gal(b1-4)GlcNAc(b1-3)Gal(b1-4)GlcNAc(b1-2)Man(a1-6)]Man(b1-4)GlcNAc(b1-4)GlcNAc", "method_in_brief": "as §1"}, "[18]": {"target": "Gal(b1-4)GlcNAc(b1-3)Gal(b1-4)GlcNAc(b1-3)GalNAc", "method_in_brief": "as §1"}, "[19]": {"target": "Gal(b1-4)GlcNAc(b1-3)Gal(b1-4)GlcNAc(b1-3)[Gal(b1-4)GlcNAc(b1-3)Gal(b1-4)GlcNAc(b1-6)]GalNAc", "method_in_brief": "as §1"}}, "note": "The other results are listed elsewhere or left out.", "data": [{"binder": "B1", "values": [{"measurement": "glycan array binding signal (z-score)", "setting": "[1]", "result": 0.463}, {"measurement": "glycan array binding signal (z-score)", "setting": "[2]", "result": -0.845}, {"measurement": "glycan array binding signal (z-score)", "setting": "[3]", "result": 0.31}, {"measurement": "glycan array binding signal (z-score)", "setting": "[4]", "result": 0.856}, {"measurement": "glycan array binding signal (z-score)", "setting": "[5]", "result": -0.781}, {"measurement": "glycan array binding signal (z-score)", "setting": "[6]", "result": 2.32}, {"measurement": "glycan array binding signal (z-score)", "setting": "[7]", "result": -0.533}, {"measurement": "glycan array binding signal (z-score)", "setting": "[8]", "result": 1.26}, {"measurement": "glycan array binding signal (z-score)", "setting": "[9]", "result": 2.92}, {"measurement": "glycan array binding signal (z-score)", "setting": "[10]", "result": 1.63}, {"measurement": "glycan array binding signal (z-score)", "setting": "[11]", "result": 2.16}, {"measurement": "glycan array binding signal (z-score)", "setting": "[12]", "result": 0.453}, {"measurement": "glycan array binding signal (z-score)", "setting": "[13]", "result": 0.345}, {"measurement": "glycan array binding signal (z-score)", "setting": "[14]", "result": 1.14}, {"measurement": "glycan array binding signal (z-score)", "setting": "[15]", "result": 0.727}, {"measurement": "glycan array binding signal (z-score)", "setting": "[16]", "result": -0.104}, {"measurement": "glycan array binding signal (z-score)", "setting": "[17]", "result": 1.53}, {"measurement": "glycan array binding signal (z-score)", "setting": "[18]", "result": 0.776}, {"measurement": "glycan array binding signal (z-score)", "setting": "[19]", "result": 2.7}]}]}
